Source: article PMC10095060
These are yes or no findings as the source states them, for the method shown. For part of these data: In cells and extracts the contact can be indirect. Some results given as binding are weak or reduced against the parent protein; the word gives no strength.

By UniProt entry, the sequences of proteins in these tests, tags left out.
UniProt Q84WI0: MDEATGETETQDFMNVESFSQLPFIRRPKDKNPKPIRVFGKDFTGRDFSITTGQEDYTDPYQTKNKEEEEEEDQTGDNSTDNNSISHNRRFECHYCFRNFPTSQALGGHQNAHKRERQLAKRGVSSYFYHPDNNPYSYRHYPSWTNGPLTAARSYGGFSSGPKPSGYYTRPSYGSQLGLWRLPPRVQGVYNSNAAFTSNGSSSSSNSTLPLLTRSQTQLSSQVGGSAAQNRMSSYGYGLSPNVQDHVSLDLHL
UniProt P93751: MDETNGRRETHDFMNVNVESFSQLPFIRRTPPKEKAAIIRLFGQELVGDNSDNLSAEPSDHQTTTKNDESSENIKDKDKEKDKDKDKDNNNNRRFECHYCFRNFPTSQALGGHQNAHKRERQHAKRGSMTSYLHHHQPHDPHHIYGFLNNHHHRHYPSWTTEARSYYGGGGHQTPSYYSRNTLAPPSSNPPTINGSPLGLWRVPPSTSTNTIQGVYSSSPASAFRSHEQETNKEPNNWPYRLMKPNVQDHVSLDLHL
UniProt Q9FG05: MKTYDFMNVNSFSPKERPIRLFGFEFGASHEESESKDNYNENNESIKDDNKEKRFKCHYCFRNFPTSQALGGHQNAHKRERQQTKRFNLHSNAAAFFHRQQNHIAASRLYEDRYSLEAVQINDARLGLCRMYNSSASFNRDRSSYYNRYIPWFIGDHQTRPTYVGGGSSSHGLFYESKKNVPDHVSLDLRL
UniProt Q9SK03: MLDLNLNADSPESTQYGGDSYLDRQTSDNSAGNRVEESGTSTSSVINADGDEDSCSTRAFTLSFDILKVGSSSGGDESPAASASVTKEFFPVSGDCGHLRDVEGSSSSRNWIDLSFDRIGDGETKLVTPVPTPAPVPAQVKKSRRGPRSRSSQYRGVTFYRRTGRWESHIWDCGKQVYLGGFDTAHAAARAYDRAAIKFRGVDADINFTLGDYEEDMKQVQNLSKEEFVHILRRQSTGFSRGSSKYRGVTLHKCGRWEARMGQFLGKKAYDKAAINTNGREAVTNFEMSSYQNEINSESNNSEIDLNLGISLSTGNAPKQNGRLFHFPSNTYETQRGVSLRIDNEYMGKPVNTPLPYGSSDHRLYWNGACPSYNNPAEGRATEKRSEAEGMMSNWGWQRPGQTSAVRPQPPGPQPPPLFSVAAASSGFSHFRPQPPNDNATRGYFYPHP
UniProt Q9LVG2: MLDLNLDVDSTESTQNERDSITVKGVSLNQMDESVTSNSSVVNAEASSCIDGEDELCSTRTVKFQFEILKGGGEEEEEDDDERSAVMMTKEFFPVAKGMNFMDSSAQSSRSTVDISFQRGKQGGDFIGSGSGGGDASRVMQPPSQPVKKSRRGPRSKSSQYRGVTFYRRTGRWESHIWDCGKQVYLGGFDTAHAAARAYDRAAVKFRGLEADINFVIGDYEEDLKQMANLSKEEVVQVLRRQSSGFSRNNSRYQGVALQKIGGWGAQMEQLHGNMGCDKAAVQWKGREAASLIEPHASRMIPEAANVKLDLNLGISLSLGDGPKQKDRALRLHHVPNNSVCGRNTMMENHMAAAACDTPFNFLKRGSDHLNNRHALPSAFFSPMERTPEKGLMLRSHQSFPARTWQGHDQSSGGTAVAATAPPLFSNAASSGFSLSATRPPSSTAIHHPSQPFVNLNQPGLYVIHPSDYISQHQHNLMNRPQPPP

Experiments:
[1] = target: GIS-BD (glabrous inflorescence stems in pGBKT7) (Arabidopsis thaliana) (UniProt Q84WI0); test: two-hybrid; pGADT7 (AD) and pGBKT7 (BD) constructs co-transformed into yeast AH109; selected on SD/-Leu/-Trp at 30 °C for 48 h in the dark, then growth on SD/-Ade/-His/-Leu/-Trp at 30 °C
[2] = target: ZFP8-BD (zinc-finger protein 8 in pGBKT7) (Arabidopsis thaliana) (UniProt P93751); test: as above
[3] = target: GIS2-BD (GIS2 in pGBKT7) (Arabidopsis thaliana) (UniProt Q9FG05); test: as above
[4] = target: GIS-nYFP (Arabidopsis thaliana) (UniProt Q84WI0); test: split reporter; BiFC: cYFP and nYFP constructs (P2YC, P2YN) in Agrobacterium GV3101 mixed 1:1, infiltrated into Nicotiana benthamiana leaves, 23 °C in the dark for 24-72 h; YFP fluorescence in lower epidermal cells by fluorescence microscopy
[5] = target: ZFP8-nYFP (Arabidopsis thaliana) (UniProt P93751); test: as above
[6] = target: GIS2-nYFP (Arabidopsis thaliana) (UniProt Q9FG05); test: as above

Measured: binding

TOE1-AD (TARGET OF EARLY ACTIVATION TAGGED 1 in pGADT7) (from UniProt Q9SK03 1-449)
binds: [1] | [2] | [3]

TOE1-cYFP (from UniProt Q9SK03 1-449)
binds: [4] | [5] | [6]

TOE2-AD (TOE2 in pGADT7) (from UniProt Q9LVG2 1-485)
binds: [1] | [2] | [3]

TOE2-cYFP (from UniProt Q9LVG2 1-485)
binds: [4] | [5] | [6]
